No constants are given. Whether binding was seen depends on the method and setting. Binding seen in cells or lysates may run through a third protein. Some results given as binding are weak or reduced against the parent protein; the word gives no strength. For some assays here: Tags and fused reporters may be left off the sequences shown.

By UniProt entry, the sequences of proteins in these tests, tags left out.
UniProt Q03164: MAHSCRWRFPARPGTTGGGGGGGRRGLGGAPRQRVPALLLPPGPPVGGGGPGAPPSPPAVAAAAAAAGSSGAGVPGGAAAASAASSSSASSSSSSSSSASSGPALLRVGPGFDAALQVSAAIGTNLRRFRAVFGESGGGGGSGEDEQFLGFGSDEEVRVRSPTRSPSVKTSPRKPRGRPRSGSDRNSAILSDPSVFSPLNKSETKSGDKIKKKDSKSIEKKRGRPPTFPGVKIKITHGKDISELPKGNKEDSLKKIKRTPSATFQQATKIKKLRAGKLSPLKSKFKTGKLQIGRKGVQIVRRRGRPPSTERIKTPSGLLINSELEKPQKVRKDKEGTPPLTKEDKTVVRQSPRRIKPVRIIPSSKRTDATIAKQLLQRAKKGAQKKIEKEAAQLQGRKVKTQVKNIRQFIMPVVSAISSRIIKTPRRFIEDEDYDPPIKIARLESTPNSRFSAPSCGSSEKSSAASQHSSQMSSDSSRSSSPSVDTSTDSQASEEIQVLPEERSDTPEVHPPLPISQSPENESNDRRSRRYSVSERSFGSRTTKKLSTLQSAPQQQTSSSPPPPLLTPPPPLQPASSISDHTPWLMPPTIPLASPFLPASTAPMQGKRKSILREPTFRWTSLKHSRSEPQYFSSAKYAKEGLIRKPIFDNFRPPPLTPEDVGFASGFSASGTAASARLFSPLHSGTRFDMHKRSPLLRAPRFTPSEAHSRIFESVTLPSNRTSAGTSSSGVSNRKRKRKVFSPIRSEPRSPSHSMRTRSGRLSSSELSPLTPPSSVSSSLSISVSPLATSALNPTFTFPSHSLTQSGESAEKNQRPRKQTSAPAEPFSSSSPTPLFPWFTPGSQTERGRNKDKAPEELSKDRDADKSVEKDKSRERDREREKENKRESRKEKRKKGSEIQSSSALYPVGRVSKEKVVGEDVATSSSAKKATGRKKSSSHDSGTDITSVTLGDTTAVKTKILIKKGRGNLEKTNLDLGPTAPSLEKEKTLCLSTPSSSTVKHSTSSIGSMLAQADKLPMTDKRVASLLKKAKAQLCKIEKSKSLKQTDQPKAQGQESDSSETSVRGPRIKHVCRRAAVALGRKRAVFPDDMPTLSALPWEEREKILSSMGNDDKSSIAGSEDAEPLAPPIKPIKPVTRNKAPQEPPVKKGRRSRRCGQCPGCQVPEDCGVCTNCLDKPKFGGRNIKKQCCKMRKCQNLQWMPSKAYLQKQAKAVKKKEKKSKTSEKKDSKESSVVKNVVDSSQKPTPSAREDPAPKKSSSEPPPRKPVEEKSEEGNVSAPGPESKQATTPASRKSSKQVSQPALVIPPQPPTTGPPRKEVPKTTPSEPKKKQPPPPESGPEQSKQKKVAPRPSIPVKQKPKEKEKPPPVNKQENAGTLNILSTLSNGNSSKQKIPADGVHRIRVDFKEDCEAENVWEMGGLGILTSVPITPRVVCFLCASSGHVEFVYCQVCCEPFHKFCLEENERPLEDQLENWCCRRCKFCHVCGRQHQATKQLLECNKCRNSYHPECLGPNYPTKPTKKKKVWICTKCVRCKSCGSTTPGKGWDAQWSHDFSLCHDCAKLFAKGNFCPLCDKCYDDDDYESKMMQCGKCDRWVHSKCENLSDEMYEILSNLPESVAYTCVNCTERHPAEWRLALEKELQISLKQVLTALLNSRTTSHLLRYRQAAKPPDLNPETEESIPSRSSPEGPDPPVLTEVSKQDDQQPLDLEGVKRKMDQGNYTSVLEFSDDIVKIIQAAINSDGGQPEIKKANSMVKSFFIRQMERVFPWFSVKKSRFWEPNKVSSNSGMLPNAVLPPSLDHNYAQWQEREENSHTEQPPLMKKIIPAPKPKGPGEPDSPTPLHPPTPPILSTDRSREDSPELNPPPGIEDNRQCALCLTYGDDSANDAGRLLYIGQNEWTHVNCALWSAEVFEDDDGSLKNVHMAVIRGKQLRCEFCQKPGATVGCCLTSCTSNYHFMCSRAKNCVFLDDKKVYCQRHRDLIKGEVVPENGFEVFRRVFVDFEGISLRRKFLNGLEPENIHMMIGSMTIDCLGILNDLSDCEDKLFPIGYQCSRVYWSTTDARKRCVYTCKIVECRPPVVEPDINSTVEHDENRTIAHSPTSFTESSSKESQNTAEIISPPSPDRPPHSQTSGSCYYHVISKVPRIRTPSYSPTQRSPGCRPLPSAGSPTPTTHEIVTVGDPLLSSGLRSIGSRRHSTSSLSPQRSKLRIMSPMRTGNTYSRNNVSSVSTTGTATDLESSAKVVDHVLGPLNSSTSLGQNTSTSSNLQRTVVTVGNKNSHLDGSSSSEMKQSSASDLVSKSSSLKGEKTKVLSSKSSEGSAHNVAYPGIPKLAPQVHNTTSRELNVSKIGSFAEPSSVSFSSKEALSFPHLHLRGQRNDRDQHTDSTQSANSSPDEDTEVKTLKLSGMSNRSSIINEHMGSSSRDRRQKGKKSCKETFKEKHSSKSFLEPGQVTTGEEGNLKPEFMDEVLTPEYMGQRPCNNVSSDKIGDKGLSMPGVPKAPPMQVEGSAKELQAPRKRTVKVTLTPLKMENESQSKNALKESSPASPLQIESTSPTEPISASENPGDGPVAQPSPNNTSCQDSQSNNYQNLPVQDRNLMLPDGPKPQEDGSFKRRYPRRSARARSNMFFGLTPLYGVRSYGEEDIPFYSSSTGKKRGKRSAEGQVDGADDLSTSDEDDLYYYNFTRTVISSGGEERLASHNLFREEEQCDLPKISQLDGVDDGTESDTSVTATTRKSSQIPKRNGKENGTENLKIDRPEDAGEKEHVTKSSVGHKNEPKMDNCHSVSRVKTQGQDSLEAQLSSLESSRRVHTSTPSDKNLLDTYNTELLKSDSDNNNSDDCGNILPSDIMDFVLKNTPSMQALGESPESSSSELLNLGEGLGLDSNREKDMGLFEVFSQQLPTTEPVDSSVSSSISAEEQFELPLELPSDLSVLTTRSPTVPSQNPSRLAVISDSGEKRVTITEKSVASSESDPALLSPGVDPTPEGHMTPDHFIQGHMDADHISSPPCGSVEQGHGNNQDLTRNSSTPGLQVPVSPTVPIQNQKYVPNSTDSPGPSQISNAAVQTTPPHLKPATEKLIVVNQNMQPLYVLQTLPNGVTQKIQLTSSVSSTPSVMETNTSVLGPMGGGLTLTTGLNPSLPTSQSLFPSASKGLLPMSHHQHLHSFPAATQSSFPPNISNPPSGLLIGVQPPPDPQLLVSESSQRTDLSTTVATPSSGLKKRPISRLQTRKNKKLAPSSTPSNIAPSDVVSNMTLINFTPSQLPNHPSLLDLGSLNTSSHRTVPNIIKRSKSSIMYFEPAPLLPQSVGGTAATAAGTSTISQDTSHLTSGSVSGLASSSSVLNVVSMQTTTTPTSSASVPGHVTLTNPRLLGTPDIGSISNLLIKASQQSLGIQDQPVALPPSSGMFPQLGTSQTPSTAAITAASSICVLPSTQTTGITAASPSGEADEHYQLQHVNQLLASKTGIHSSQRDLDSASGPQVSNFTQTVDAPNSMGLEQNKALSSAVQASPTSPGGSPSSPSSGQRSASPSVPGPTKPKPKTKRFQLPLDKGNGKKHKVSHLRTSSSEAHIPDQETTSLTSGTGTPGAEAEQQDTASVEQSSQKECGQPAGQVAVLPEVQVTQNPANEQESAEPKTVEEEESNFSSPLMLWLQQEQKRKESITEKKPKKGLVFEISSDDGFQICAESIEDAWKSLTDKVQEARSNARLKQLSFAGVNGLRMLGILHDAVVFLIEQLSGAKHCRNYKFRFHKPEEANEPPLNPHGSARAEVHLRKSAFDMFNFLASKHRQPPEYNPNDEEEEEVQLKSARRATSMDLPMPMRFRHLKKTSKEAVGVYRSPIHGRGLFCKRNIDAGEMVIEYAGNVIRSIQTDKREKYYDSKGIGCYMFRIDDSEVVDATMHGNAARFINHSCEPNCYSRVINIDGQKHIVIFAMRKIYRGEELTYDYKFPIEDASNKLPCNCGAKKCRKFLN
UniProt Q7LBC6: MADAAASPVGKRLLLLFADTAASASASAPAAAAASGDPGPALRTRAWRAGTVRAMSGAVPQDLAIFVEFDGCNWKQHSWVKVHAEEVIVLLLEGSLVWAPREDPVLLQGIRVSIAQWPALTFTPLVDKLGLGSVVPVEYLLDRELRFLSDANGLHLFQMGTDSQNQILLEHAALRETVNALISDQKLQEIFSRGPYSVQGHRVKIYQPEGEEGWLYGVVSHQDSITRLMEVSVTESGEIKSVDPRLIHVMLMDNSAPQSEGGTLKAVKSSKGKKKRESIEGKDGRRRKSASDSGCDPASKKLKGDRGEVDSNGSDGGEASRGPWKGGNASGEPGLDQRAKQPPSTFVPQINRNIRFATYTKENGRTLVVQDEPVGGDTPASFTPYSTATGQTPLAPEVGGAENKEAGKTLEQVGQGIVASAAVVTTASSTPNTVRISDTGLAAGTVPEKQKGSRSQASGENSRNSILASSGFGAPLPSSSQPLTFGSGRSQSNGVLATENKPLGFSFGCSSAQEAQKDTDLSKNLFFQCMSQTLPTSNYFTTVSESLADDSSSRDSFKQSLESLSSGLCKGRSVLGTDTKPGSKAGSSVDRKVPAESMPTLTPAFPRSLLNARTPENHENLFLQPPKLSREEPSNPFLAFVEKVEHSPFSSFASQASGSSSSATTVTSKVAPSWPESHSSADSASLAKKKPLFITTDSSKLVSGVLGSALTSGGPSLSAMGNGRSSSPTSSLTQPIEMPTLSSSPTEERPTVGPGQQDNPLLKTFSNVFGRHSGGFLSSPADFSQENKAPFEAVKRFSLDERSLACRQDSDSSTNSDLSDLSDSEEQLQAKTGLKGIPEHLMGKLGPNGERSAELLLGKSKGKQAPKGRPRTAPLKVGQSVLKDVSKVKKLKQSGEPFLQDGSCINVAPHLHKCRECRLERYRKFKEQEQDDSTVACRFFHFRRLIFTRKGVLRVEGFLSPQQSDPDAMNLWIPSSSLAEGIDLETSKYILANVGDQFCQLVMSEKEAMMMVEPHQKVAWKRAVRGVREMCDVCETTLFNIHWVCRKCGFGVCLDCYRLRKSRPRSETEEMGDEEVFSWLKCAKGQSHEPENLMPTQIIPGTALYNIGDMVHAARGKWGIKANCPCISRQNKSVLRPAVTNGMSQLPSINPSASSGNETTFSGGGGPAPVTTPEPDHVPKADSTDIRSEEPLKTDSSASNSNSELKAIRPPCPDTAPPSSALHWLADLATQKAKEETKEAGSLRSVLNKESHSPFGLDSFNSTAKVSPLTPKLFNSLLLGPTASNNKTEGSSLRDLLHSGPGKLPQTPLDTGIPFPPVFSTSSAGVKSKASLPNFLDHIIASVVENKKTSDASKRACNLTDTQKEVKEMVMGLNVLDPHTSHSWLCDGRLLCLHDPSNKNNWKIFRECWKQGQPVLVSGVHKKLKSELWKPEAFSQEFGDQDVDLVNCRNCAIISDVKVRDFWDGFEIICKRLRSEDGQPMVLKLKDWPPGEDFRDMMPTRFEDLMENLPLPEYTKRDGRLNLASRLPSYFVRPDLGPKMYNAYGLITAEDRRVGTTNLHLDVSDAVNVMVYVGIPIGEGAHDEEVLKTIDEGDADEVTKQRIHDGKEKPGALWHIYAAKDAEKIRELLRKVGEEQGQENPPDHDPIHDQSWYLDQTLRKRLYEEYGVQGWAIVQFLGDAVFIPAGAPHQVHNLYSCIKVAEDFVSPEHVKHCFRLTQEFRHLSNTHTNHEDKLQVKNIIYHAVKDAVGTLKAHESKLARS
UniProt P35222: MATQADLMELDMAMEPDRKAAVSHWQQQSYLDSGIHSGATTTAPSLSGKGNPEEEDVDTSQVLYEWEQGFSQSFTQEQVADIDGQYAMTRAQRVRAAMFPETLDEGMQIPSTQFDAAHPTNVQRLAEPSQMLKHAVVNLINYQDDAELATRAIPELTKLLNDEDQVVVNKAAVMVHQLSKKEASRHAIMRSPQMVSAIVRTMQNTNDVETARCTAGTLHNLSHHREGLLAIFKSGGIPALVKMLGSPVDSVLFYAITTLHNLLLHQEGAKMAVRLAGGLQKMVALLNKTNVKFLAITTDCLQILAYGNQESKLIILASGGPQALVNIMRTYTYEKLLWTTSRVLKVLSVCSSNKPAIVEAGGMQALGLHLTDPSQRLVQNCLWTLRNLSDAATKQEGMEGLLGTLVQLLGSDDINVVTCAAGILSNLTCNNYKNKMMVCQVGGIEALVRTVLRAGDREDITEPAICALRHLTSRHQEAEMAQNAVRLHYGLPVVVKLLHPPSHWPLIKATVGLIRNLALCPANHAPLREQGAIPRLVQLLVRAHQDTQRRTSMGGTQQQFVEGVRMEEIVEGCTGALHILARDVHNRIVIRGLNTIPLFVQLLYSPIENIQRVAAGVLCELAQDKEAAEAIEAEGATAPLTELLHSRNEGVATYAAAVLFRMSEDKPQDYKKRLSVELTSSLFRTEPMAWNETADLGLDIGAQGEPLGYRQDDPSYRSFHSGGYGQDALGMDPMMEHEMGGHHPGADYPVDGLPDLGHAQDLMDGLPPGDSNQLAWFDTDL

Results on seven molecules are retold here after paper PMC5414094.

The target of assay [1] is MLL1 (293 T cells) (human (endogenous in 293 T)) (UniProt Q03164). As to the kind of experiment: co-IP; MLL1 precipitated (control IgG beside it) from 293 T cells expressing Flag-tagged KDM3A or HA-tagged KDM3B.
In assay [2] the target is endogenous MLL1 (HCT116 cells) (human (endogenous in HCT116)) (UniProt Q03164). As to the kind of experiment: co-IP; endogenous MLL1 with endogenous KDM3A and KDM3B in HCT116 cells.
Assay [3] deals with endogenous KDM3B (293 T cells) (human (endogenous in 293 T)) (UniProt Q7LBC6). As to the kind of experiment: co-IP; endogenous proteins; antibodies against endogenous KDM3A and KDM3B; nuclear extract of 293 T cells, with Wnt3a stimulation.
In assay [4] the target is T1, endogenous KDM3A (293 T cells) (human (endogenous in 293 T)) (UniProt Q9Y4C1).
T1 sequence: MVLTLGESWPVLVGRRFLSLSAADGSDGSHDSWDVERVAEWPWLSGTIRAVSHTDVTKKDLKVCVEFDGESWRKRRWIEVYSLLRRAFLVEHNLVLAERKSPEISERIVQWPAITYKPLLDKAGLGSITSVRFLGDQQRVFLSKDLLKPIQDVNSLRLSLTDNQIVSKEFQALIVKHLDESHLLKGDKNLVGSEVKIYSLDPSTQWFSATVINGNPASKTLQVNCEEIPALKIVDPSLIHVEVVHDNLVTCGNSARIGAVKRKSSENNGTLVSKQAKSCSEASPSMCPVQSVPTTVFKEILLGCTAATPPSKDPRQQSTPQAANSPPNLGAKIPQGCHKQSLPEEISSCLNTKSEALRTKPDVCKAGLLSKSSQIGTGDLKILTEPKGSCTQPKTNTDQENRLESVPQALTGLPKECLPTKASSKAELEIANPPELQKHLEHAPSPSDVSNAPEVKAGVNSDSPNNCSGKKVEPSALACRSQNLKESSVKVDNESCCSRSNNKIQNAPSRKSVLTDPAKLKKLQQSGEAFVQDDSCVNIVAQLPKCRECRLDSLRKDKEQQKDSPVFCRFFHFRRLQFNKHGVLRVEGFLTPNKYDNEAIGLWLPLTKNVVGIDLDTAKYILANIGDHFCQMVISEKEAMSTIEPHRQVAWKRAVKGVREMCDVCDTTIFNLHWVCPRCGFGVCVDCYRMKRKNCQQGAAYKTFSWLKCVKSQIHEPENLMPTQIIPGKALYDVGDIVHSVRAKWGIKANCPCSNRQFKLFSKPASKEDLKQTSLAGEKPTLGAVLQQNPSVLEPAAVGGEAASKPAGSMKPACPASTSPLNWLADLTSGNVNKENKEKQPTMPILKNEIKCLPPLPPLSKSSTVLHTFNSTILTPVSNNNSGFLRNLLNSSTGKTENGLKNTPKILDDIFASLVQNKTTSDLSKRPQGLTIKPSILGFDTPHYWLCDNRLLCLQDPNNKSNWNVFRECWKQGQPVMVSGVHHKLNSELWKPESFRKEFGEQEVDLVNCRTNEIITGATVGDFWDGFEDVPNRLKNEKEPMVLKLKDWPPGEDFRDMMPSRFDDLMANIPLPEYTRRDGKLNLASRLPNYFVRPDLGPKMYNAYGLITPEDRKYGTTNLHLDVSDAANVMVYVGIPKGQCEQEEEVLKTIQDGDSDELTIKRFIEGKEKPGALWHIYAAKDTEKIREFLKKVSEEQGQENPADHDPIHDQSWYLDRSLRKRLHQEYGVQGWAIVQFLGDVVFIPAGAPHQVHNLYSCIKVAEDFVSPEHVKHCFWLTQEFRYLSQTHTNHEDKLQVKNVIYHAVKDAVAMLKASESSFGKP
The assay is described as above.

The target of assay [5] is recombinant glutathione S-transferase fusion β-catenin (UniProt P35222). Description: pull-down; GST pull-down: recombinant GST fusion β-catenin with in vitro translated KDM3A or KDM3B; only the target purified.

As for “HA-tagged KDM3B (from UniProt Q7LBC6 1-1761) (enzyme)”, the binding result in assay [1] is on record as “binds”. For “endogenous KDM3B (HCT116 cells) (from UniProt Q7LBC6 1-1761) (enzyme)”, in assay [2], the binding result is “binds”. Turning to “endogenous β-catenin (293 T cells) (from UniProt P35222 1-781)”, the binding result in assay [3] and in assay [4] was “binds” each time. On to “in vitro translated KDM3B (from UniProt Q7LBC6 1-1761) (enzyme)”, for which the binding entry in assay [5] is listed as “binds”.

B1: endogenous KDM3A (HCT116 cells) (enzyme, UniProt Q9Y4C1 1-1321)
chain: T1 sequence
On to B1, for which the binding entry in assay [2] is recorded as “binds”.

B2: Flag-tagged KDM3A (enzyme, UniProt Q9Y4C1 1-1321)
chain: T1 sequence
Turning to B2, the binding result in assay [1] is “binds”.

B3: in vitro translated KDM3A (enzyme, UniProt Q9Y4C1 1-1321)
chain: T1 sequence
Consider B3, for which the binding entry in assay [5] was “binds”.
